Earlier results in publication PMC12377202, “Design, synthesis, and cytotoxic evaluation of quinazoline-based derivatives as VEGER-2 inhibitors: comparative study against EGFR kinase activity, induction of apoptosis, and molecular docking study” (RSC Advances, 2025).
Where two headings read alike, the source gives them in different places.

Test system: WI-38
Settings: cited from earlier work

For `O=C(Nc1ccc(Oc2nc(Cl)nc3ccccc23)cc1)c1cccnc1` [VIII], the selectivity index (WI-38 vs HepG2) is listed as 9.22, the selectivity index (WI-38 vs MCF-7) is listed as 6.92 and the selectivity index (WI-38 vs PC3) is listed as 5.53.

For `O=C(CSc1nc2ccc([N+](=O)[O-])cc2c(=O)n1-c1ccccc1)NNC(=O)c1ccccc1` [VII], the selectivity index (WI-38 vs HepG2) is listed as 8.47, the selectivity index (WI-38 vs MCF-7) is listed as 4.73 and the selectivity index (WI-38 vs PC3) is listed as 5.59.
